Results on two substances are retold here after publication PMC9505842.

In experiment [1] the target is T1, CCN1 (mouse liver) (mouse (endogenous in liver)) (UniProt P18406).
T1 sequence: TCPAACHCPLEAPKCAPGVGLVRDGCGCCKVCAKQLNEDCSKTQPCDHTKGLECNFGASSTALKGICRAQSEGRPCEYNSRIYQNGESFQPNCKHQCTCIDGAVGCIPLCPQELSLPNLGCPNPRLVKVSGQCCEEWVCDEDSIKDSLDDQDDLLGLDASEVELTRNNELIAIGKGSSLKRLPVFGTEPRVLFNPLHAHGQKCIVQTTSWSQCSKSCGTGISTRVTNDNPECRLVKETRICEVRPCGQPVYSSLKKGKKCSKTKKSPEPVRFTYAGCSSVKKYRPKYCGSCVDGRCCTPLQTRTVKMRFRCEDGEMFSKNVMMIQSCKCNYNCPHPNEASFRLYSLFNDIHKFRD
The experiment is described as follows: co-IP; IP with anti-CCN1 antibody, IB for integrins α5 and β1; whole lysates of mouse livers (legend: db/m and db/db mice, 8 weeks old; text: ND vs. HFD mice).

Experiment [2] concerns the target T2, CCN1 (human (endogenous in LO2)) (UniProt O00622).
T2 sequence: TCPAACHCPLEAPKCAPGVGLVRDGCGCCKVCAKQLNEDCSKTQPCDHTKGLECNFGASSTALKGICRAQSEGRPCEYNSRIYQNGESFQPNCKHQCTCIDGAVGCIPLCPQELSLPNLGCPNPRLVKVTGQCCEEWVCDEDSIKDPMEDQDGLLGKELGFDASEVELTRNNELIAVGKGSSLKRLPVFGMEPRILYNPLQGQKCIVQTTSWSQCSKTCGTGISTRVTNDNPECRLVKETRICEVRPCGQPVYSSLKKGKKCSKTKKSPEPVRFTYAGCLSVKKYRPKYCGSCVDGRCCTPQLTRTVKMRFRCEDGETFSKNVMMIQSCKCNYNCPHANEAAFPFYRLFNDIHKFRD
The experiment is described as follows: co-IP; IP with anti-CCN1 antibody (or control IgG) at 4 °C overnight, protein A/G-Sepharose beads 1 h; IB for integrins α5 and β1; LO2 hepatocyte lysates in RIPA buffer, with or without FFA (1 mM) for 24 h.

No constants are given. Whether binding was seen depends on the method and setting. In cells and extracts the contact can be indirect. Binding can be weak; no strength is given.

For integrin α5β1 (mouse liver) (complex), the binding entry in experiment [1] is listed as “binds”. Regarding “integrin α5β1 (human (endogenous in LO2)) (complex)”, in experiment [2], the binding result is on record as “binds”.
